In experiment [1] the target is T1, pxENB17-RBD-His (SARS-CoV-2, UniProt P0DTC2 319-541).
The target in the next experiment is pxENB9-FLS-CT-His (SARS-CoV-2, UniProt P0DTC2 15-1213).
Experiment [2] has as its target T1, pxENB17-RBD-His. Put plainly: BLI (Octet), ACE2 construct loaded on SA tips by its tag, RBD as analyte. (In general: Biolayer interferometry detects binding as a change in optical thickness at a sensor tip.)

B1: pxEBNCP21_hACE2-3A-mIgG1(h23)TST (Fc fusion)
chain: QSTIEEQAKTFLDKFNHEAEDLFYQSSLASWNYNTNITEENVQNMNNAGDKWSAFLKEQSTLAQMYPLQEIQNLTVKLQLQALQQNGSSVLSEDKSKRLNTILNTMSTIYSTGKVCNPDAPAECLLLEPGLNEIMANSLDYNERLWAWESWRSEVGKALRPLYEEYVVLKNEMARANHYEDYGDYWRGDYEVNGVDGYDYSRGQLIEDVEHTFEEIKPLYEHLHAYVRAKLMNAYPSYISPIGCLPAHLLGDMWGRFWTNLYSLTVPFGQKPNIDVTDAMVDQAWDAQRIFKEAEKFFVSVGLPNMTQGFWENSMLTDPGNVQKAVCHPTAWDLGKGDFRILMCTKVTMDDFLTAHHEMGHIQYDMAYAAQPFLLRNGANEGFHEAVGEIMSLSAATPKHLKSIGLLSPDFQEDNETEINFLLKQALTIVGTLPFTYMLEKWRWMVFKGEIPKDQWMKKWWEMKREIVGVVEPVPHDETYCDPASLFHVSNDYSFIRYYTRTLYQFQFQEALCQAAKHEGPLHKCDISNSTEAGQKLFNMLRLGKSEPWTLALENVVGAKNMNVRPLLNYFEPLFTWLKDQNKNSFVGWSTDWSPYADVPRDCGCKPCICTVPEVSSVFIFPPKPKDVLTITLTPKVTCVVVDISKDDPEVQFSWFVDDVEVHTAQTQPREEQFNSTFRSVSELPIMHQDWLNGKEFKCRVNSAAFPAPIEKTISKTKGRPKAPQVYTIPPPKEQMAKDKVSLTCMITDFFPEDITVEWQWNGQPAENYKNTQPIMNTNGSYFVYSKLNVQKSNWEAGNTFTCSVLHEGLHNHHTEKSLSHSPGKGGSGWSHPQFEKGGGSGGGSGGSAWSHPQFEK
Consider B1, for which the Kd came out at 56.5 nM in the experiment with pxENB17-RBD-His [1] and 100 nM with pxENB9-FLS-CT-His. The “Response, shift in Wavelength (nm)” value with pxENB17-RBD-His [2] came to 0.0063 nm.

In general, Kd refers to the concentration at which binding is half-saturated.

The values above are taken from US20240400618A1 (GRIFOLS DIAGNOSTIC SOLUTIONS, published 2024).
